Structures can show the parent of a compound that is named as a salt. The list shows a part of the results. Single values are uncertain here, since repeats match poorly.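 The cells were human embryonic kidney cells carrying a Renilla luciferase gene, driven by the HSV-TK promoter, on a plasmid put in briefly by transfection. This is the first-round screen of about ten thousand compounds, looking for ones that raise reporter output.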

The subject of this assay is HEK 293FT. As to the kind of experiment: log relative Renilla luciferase luminescence (reporter expression vs reference, reference not stated) (log (base not stated)); higher = higher recombinant reporter expression. Particulars: 10 µM; time after transfection 48 h.
`Cn1cc(C2=C(c3ccc(Cl)cc3Cl)C(=O)NC2=O)c2ccccc21`: the log was 0.0175.

Consider `Nc1c(S(=O)(=O)O)cc(Nc2cccc3ccccc23)c2c1C(=O)c1ccccc1C2=O`, for which the log was determined as 0.0422.

In the case of `CCc1ccc(OCc2ccccc2C(=O)Nc2ccc3nc(C)cc(N)c3c2)cc1`, the log was -0.155.

For the compound `CCOC(=O)c1ncn2c1CN(C)C(=O)c1cc(F)ccc1-2` [Flumazenil], the log is -0.03.

For the compound `N=C(N)N/N=C/c1c(Cl)cccc1Cl` [Guanabenz acetate], the log was -0.236.

Regarding `COc1ccc(CCN(C)CCCOc2ccc(S(=O)(=O)c3c(C(C)C)c4ccccc4n3C)cc2)cc1OC`, the log was -0.0323.

With `O=C(Nc1cc(C(F)(F)F)cc(C(F)(F)F)c1)c1cc(Cl)ccc1O`, the log was -1.06.

For the compound `Cc1cc(C)c(S(=O)(=O)Nc2ccccc2C(F)(F)F)c(C)c1`, the log is 0.0807.

Regarding `Cc1cc2nc3c(=O)[nH]c(=O)nc-3n(C)c2cc1C=O`, the log was -0.108.

Turning to `O=C(c1ccc(Nc2nccc(-c3cc4ccccc4s3)n2)cc1)N1CCC(N2CCCC2)CC1`, the log was -0.108.

In the case of `COc1ccc(NC(=O)c2cc(OCCCN(C)C)nn2Cc2ccccc2)cc1` [CFM 1571 hydrochloride], the log is -0.545.

Consider `CC[N+](CC)(CC)CC(=O)Nc1c(C)cccc1C` [QX 314 chloride], for which the log was -0.195.

For `O=C1c2ccccc2CCC1CNCCc1ccc(O)cc1` (stereo not given) [HEAT hydrochloride], the log is -0.0131.

`NC(N)=Nc1ccc(Cl)cc1` [4-Chlorophenylguanidine hydrochloride]: the log amounted to 0.147.

For the compound `COc1cccc(OC)c1OCCNCC1COc2ccccc2O1` (stereo not given) [WB 4101 hydrochloride], the log was -0.0393.

In the case of `CCCC[P+](CCCC)(CCCC)Cc1ccc(NC(=O)C(Cc2ccc3ccccc3c2)NC(=NC2CCCCC2)NC2CCCCC2)cc1` (stereo not given), the log was -0.00108.

As to `COc1ccc(-c2nc(C(=O)N3CCN(C)CC3)sc2-c2ccc(OC)cc2)cc1`, the log was 0.154.

With `N[C@@H](C(=O)O)c1ccc(O)c(C(=O)O)c1` [(R)-3-Carboxy-4-hydroxyphenylglycine], the log stood at 0.033.

Take `COc1ccc(CCCOC(Cn2ccnc2)c2ccc(OC)cc2)cc1` (stereo not given): the log was determined as 0.0438.

As to `CCC(CC)(CC(=O)Nc1cccc(/C=C/c2nc(C3CCC3)cs2)c1)C(=O)O` [Cinalukast], the log is -0.165.

In the case of `CC(C)C[C@@H](C(=O)N[C@H](C(=O)OC1CCCC1)c1ccccc1)[C@H](O)C(=O)NO`, the log was found to be 0.0127.

`O=c1cc(-c2ccccc2)oc2cc(O)c(O)c(O)c12` [Baicalein]: the log worked out at 0.0667.

On to `O=[N+]([O-])c1cc(Cl)ccc1S(=O)(=O)N1CCN(Cc2ccccc2)CC1`, for which the log is -1.15.

Turning to `COc1cc2nc(N3CCN(C(=O)c4ccco4)CC3)nc(N)c2cc1OC` [Prazosin hydrochloride], the log was found to be 0.0428.

On to `CC(C)(Oc1ccc(Cl)cc1)C(=O)O` [Clofibric acid], for which the log stood at 0.024.

With `COc1ccc(CCN(C)CCc2ccc(OC)c(OC)c2)cc1OC` [YS-035 hydrochloride], the log was 0.118.

As to `Cc1ccccc1N1CCN(S(=O)(=O)C[C@]23CC[C@H](C[C@@H]2NC(=O)[C@@H](N)CCS(C)(=O)=O)C3(C)C)CC1` [L-368,899 hydrochloride], the log turned out to be 0.0222.

As for `COc1ccc(CC(=O)NC(/N=C(\NC#N)Nc2cccc3ncccc23)C(C)(C)C)cc1OC` (stereo not given), the log was determined as 0.03.

As for `Nc1ccc(-c2cccc3c(=O)cc(N4CCOCC4)oc23)cc1`, the log is -4.81e-05.

With `CC(=O)N[C@@H](CC(=O)N[C@@H](CCC(=O)O)C(=O)O)C(=O)O` [Spaglumic acid], the log amounted to 0.0984.

Consider `CN(C)CCCN1c2ccccc2CCc2ccc(Cl)cc21` [Clomipramine hydrochloride], for which the log is -0.0323.

As for `Cn1cccc1/C=C1\C(=O)NC(=O)c2ccccc21`, the log was -0.0776.

For `CC(C)[C@H](CO)Nc1nc(Nc2cccc(Cl)c2)c2ncn(C(C)C)c2n1` [Purvalanol A], the log was -0.0364.

Take `CO[C@@H]1[C@H](O)[C@@H](CO)O[C@H]1n1cnc2c(NC3CCCCC3)ncnc21`: the log came to 0.0191.

For the compound `O=C(O)C1(C(=O)O)CCC1.[NH2-].[NH2-].[Pt+2]` [Carboplatin], the log is -0.0758.

In the case of `CN(C(=O)CCCOc1ccc2[nH]c(=O)ccc2c1)C1CCCCC1` [Cilostamide], the log is 0.0515.

Regarding `CCC(=O)OCN1C(=O)C=CC1=O`, the log is -0.902.

Turning to `CCN(Cc1ccncc1)C(=O)C(CO)c1ccccc1` (stereo not given) [Tropicamide], the log is -0.0734.

In the case of `COP(=O)(OC)OC(c1ccc(Cl)cc1)P(=O)(OC)OC` (stereo not given), the log is 0.0168.

For the compound `COc1cc(COc2cc(N)c(Cl)cc2C(=O)CCC2CCN(CCNS(C)(=O)=O)CC2)cc(OC)c1`, the log came to 0.114.

(Values after the supplement of paper PMC7024190.)
